Measured values published in paper PMC5708649, “A novel Porphyromonas gingivalis enzyme: An atypical dipeptidyl peptidase III with an ARM repeat domain” (PLoS ONE, 2017).
Results are given in words; binding and its absence hold for the method and conditions named.

Protein sequences, listed by entry. Tags and fused reporters are not part of them.
UniProt Q7MX92: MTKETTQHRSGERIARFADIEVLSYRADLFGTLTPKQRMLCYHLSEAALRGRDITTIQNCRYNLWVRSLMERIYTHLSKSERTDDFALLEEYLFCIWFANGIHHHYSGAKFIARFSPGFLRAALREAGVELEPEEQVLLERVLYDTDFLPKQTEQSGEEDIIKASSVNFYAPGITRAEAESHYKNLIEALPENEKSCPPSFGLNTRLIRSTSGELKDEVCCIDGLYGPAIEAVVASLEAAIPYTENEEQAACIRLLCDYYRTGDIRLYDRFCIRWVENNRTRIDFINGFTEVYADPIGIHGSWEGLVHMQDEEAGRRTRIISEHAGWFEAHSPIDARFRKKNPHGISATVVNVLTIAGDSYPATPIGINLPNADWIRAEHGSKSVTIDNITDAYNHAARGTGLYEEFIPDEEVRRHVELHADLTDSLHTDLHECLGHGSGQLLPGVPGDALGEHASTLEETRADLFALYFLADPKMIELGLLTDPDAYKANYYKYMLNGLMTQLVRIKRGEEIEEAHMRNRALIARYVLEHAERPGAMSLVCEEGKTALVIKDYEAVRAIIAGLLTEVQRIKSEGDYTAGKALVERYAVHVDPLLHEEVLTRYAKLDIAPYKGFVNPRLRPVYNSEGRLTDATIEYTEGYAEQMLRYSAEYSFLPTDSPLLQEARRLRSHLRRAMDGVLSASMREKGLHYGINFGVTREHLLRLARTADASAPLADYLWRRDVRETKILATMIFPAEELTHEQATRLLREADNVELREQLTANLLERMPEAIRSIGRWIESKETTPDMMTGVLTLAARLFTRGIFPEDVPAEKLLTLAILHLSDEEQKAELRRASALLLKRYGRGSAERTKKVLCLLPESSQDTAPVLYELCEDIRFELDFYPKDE

Molecular target: full-length PgDPP III (Porphyromonas gingivalis W83) (UniProt Q7MX92)
Assay: SAXS; full-length PgDPP III at 8.8, 4.43 and 1.02 mg/mL in 50 mM Tris-HCl pH 8.0, 100 mM NaCl; molecular weight from I(0) against BSA; both purified

“full-length PgDPP III (from UniProt Q7MX92 1-886) (enzyme)” was tested, and the binding was “no binding (tested: 8.8, 4.43, and 1.02 mg/mL)”.
